{"sequences": {"note": "Protein sequences, listed by entry. Tags and fused reporters are not part of them. Lines headed by an entry give the natural chain unless they say otherwise; changes in a name come on top.", "UniProt Q8IZA0": "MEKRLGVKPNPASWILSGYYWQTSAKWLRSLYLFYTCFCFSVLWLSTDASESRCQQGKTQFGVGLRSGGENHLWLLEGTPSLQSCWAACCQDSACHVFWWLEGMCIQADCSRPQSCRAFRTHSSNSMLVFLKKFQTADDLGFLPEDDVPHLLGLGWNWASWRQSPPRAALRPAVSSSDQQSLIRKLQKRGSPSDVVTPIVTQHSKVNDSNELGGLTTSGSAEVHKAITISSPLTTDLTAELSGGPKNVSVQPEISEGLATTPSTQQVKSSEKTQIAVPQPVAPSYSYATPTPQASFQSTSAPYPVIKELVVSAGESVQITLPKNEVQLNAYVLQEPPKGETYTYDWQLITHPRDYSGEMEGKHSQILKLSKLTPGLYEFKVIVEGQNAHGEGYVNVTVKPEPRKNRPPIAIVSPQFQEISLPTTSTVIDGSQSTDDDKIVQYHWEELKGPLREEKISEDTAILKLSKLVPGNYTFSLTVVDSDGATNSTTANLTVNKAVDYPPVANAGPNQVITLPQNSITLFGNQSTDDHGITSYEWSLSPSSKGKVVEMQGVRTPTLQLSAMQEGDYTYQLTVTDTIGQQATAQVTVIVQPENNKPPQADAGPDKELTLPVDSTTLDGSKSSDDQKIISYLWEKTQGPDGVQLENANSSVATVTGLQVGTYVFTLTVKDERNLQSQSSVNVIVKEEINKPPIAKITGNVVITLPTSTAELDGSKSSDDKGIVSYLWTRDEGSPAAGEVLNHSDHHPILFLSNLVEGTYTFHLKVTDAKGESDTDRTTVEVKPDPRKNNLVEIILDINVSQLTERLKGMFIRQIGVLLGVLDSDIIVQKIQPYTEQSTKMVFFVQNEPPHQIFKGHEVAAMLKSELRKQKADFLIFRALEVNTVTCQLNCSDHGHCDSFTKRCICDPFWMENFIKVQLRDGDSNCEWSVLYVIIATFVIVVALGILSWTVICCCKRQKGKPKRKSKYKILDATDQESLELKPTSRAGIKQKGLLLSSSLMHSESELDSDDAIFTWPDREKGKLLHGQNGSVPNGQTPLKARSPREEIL", "UniProt Q8IXH7, whole entry": "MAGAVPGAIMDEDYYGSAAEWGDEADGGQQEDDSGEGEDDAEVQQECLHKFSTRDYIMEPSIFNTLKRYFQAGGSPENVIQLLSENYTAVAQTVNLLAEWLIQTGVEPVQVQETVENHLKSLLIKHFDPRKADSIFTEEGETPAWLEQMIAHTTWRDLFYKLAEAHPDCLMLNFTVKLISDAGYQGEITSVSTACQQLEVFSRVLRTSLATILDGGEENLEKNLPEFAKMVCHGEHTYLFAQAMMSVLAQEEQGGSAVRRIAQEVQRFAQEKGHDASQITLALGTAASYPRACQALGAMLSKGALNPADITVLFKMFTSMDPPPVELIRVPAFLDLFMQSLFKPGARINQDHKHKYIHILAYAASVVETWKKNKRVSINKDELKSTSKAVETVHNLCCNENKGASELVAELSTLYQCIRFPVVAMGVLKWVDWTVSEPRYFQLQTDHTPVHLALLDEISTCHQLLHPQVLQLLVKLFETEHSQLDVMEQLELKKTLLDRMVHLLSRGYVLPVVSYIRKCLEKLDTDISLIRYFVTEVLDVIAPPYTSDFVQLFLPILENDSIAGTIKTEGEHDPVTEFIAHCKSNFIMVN", "UniProt Q8IW35": "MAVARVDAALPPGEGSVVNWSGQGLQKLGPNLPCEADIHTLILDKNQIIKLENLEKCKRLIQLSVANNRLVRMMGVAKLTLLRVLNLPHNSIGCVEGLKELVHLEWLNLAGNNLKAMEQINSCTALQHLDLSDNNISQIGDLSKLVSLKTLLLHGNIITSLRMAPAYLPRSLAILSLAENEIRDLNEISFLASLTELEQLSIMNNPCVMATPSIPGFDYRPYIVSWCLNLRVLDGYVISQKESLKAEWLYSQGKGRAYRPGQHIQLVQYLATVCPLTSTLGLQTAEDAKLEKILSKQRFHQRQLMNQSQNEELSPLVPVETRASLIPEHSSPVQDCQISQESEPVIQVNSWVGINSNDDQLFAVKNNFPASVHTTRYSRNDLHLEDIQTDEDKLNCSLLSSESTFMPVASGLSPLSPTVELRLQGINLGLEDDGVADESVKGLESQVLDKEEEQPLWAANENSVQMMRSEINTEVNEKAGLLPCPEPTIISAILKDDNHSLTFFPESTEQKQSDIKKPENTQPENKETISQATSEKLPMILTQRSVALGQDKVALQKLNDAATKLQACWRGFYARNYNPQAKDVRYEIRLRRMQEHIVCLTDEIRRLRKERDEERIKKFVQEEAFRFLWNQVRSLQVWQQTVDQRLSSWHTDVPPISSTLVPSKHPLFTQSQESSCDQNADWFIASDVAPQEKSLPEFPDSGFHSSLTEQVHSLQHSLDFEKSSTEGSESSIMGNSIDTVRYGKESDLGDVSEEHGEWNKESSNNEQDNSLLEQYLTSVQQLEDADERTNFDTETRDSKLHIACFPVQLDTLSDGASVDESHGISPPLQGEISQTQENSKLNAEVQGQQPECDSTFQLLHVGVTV", "UniProt Q86YT6, whole entry, looked up": "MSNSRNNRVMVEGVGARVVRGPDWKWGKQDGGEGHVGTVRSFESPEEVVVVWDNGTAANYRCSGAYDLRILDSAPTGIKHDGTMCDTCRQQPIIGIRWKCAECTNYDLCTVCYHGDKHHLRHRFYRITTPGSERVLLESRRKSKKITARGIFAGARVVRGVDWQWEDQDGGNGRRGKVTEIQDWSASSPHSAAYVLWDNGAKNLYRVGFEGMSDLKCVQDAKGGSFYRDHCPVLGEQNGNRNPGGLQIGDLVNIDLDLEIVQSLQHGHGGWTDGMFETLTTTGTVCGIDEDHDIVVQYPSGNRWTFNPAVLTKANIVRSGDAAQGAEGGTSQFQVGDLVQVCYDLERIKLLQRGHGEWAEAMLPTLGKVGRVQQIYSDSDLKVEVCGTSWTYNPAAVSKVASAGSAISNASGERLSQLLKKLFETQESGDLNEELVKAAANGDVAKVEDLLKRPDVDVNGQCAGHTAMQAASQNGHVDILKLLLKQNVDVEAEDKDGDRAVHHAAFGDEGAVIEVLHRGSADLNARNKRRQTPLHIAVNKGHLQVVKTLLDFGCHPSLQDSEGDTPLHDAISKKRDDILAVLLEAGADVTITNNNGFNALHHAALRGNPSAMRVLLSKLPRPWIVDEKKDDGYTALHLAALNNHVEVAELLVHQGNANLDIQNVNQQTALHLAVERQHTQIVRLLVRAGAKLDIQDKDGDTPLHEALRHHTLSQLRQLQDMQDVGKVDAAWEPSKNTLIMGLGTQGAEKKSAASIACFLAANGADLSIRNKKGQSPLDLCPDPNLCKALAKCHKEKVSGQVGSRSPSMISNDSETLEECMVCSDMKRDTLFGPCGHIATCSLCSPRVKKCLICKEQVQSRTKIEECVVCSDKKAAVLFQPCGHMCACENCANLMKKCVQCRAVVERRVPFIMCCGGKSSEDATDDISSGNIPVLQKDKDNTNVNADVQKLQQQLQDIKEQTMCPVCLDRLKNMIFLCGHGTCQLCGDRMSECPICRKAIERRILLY", "UniProt Q8N3Y1": "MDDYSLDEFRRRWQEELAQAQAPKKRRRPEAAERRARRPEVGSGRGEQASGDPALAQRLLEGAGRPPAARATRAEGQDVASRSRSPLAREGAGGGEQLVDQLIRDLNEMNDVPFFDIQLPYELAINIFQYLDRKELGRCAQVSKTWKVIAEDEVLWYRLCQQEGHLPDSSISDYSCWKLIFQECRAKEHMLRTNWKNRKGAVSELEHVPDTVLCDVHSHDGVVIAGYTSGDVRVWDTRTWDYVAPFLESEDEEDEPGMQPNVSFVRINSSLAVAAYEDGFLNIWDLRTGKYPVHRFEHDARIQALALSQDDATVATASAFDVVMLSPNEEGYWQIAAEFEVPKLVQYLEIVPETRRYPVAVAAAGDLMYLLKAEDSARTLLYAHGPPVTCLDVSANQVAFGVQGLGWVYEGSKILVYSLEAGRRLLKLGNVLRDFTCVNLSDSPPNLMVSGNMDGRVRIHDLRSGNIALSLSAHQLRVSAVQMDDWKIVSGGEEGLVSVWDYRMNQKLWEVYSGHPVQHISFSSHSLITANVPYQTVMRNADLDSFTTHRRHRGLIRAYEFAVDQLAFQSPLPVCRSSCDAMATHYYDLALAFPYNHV", "UniProt Q86WJ1": "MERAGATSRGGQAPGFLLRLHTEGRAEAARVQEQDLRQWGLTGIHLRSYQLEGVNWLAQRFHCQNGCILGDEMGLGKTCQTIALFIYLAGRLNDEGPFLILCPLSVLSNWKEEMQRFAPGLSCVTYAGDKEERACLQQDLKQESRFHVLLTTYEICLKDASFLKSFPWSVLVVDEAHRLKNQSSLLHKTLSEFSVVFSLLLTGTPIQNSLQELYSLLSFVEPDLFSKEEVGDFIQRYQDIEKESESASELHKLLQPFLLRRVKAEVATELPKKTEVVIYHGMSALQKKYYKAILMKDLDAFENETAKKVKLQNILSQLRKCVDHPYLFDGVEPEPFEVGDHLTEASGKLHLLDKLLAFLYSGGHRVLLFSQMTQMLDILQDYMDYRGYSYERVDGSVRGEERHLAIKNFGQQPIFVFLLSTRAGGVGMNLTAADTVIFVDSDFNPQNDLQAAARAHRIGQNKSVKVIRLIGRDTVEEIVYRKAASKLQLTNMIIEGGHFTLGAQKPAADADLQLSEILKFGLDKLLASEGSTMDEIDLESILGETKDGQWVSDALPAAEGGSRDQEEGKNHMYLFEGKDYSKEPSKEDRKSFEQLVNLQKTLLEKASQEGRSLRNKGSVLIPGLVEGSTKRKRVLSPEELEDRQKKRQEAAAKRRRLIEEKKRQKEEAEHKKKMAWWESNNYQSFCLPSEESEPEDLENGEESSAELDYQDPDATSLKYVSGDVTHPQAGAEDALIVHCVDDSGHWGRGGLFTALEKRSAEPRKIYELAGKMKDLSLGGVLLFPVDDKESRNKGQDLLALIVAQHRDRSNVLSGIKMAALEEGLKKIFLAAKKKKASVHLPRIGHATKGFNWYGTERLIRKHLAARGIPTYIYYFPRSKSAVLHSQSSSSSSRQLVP", "UniProt Q8IXW5, whole entry": "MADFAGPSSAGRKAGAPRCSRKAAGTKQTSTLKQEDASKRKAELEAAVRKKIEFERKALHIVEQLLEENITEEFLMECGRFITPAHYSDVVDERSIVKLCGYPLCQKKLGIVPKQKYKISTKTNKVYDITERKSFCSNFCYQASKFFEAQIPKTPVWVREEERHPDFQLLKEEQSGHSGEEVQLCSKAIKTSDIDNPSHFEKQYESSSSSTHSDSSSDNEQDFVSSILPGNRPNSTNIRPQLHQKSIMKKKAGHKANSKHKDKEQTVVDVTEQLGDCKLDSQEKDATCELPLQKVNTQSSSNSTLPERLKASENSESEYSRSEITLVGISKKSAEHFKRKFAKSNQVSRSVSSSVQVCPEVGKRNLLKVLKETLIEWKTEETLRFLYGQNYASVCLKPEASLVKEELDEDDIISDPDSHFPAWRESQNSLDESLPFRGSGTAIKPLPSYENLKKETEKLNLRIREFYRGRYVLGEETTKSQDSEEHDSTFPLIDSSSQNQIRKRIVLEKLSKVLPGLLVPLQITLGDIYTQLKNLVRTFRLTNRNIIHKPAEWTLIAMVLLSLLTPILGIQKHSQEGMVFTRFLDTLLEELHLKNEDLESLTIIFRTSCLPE", "UniProt Q8IXB1": "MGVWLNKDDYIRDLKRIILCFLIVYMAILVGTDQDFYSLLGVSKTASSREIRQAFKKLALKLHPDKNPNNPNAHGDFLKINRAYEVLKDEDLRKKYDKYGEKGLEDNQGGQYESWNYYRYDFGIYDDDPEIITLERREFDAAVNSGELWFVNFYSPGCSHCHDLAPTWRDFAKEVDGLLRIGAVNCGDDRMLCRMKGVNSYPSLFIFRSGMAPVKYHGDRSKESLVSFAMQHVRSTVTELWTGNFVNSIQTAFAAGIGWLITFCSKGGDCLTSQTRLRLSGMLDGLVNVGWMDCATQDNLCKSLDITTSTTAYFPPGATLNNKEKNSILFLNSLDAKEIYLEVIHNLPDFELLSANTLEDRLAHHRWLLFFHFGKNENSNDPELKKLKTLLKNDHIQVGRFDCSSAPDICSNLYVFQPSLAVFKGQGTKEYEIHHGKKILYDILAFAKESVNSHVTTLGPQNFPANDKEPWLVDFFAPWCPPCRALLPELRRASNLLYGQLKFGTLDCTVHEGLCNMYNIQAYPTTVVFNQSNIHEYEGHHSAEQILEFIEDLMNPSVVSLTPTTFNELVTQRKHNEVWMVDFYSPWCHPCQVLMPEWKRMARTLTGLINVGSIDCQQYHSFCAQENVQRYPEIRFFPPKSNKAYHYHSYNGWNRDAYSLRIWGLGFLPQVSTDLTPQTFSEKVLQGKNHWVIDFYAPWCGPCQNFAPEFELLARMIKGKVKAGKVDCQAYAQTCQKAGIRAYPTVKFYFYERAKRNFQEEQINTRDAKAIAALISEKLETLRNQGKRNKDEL"}, "source": "the supplement of paper PMC12819154", "about": "“High-throughput peptide-centric local stability assay extends protein–ligand identification to membrane proteins, tissues and bacteria” (Nature Structural & Molecular Biology, 2025)", "note": "The list shows a part of the results. Most values lie at the level of the controls, where differences are scatter.", "data": [{"compound": "CN[C@@H]1C[C@H]2O[C@@](C)([C@@H]1OC)n1c3ccccc3c3c4c(c5c6ccccc6n2c5c31)C(=O)NC4 [staurosporine]", "experiment": "log2 fold change of tryptic peptide abundance, ligand vs vehicle (limited proteolysis) (log2 ratio); higher = more trypsin-susceptible (destabilized)", "conditions": "ligand concentration: 20 uM; sample: K562 cleared lysate; digestion: 4 min, 22 C (HT-PELSA RT4min, Orbitrap Astral)", "values": [{"target": "GPD1L (peptide sequence: FCETTIGSK, peptide start residue: 163) (UniProt Q8N335)", "log2 fold change": 0.433}, {"target": "UniProt Q86YW9 (peptide sequence: KKPQVNAK, peptide start residue: 92)", "log2 fold change": 0.112}, {"target": "KIAA0319L (peptide sequence: ILDATDQESLELKPTSR, peptide start residue: 970) (UniProt Q8IZA0)", "log2 fold change": -0.0412}, {"target": "PTOV1 (peptide sequence: WLPSHVYVNQGEILR, peptide start residue: 280) (UniProt Q86YD1)", "log2 fold change": 0.366}, {"target": "UniProt Q8IYF3 (peptide sequence: VLILHTDMLLQR, peptide start residue: 374)", "log2 fold change": 0.334}, {"target": "UniProt Q8IV76 (peptide sequence: VQICLQNPR, peptide start residue: 583)", "log2 fold change": -0.124}, {"target": "UniProt Q8IXH7 (peptide sequence: ACQALGAMLSK, peptide start residue: 292)", "log2 fold change": 0.693}, {"target": "UniProt Q8IXQ4 (peptide sequence: LAEQVSSYNESKR, peptide start residue: 260)", "log2 fold change": -0.152}, {"target": "AMN1 (peptide sequence: SCDISDAALLHLSNCR, peptide start residue: 70) (UniProt Q8IY45)", "log2 fold change": 0.424}, {"target": "SMAP1 (peptide sequence: EPEKPAKPLTAEK, peptide start residue: 180) (UniProt Q8IYB5)", "log2 fold change": -0.196}, {"target": "CEP97 (peptide sequence: MQEHIVCLTDEIRR, peptide start residue: 593) (UniProt Q8IW35)", "log2 fold change": -0.439}, {"target": "FAM126B (peptide sequence: YSTVSLQEDR, peptide start residue: 487) (UniProt Q8IXS8)", "log2 fold change": -0.17}, {"target": "MIB1 (peptide sequence: KLFETQESGDLNEELVK, peptide start residue: 421) (UniProt Q86YT6)", "log2 fold change": -0.371}, {"target": "STAG2 (peptide sequence: YVGWTMHDK, peptide start residue: 331) (UniProt Q8N3U4)", "log2 fold change": 0.631}, {"target": "ERC1 (peptide sequence: RLAEAEMHVHHLESLLEQK, peptide start residue: 335) (UniProt Q8IUD2)", "log2 fold change": -0.42}, {"target": "FBXW8 (peptide sequence: RRPEAAER, peptide start residue: 27) (UniProt Q8N3Y1)", "log2 fold change": 0.712}, {"target": "CHD1L (peptide sequence: NKGQDLLALIVAQHR, peptide start residue: 792) (UniProt Q86WJ1)", "log2 fold change": 0.148}, {"target": "SMC5 (peptide sequence: LQAVDSGLIALR, peptide start residue: 666) (UniProt Q8IY18)", "log2 fold change": 0.535}, {"target": "BBS7 (peptide sequence: SDNISTISILKDVLSK, peptide start residue: 567) (UniProt Q8IWZ6)", "log2 fold change": 0.418}, {"target": "FTSJ3 (peptide sequence: AEGYAEGDLTLYHR, peptide start residue: 238) (UniProt Q8IY81)", "log2 fold change": -0.218}, {"target": "LIX1L (peptide sequence: IALMNSVFNEHPSRR, peptide start residue: 167) (UniProt Q8IVB5)", "log2 fold change": 0.12}, {"target": "RPAP2 (peptide sequence: LKASENSESEYSR, peptide start residue: 309) (UniProt Q8IXW5)", "log2 fold change": -0.565}, {"target": "UniProt Q8N357 (peptide sequence: GRPLAEESEQER, peptide start residue: 347)", "log2 fold change": -0.187}, {"target": "CCAR1 (peptide sequence: GYKQQLVEK, peptide start residue: 592) (UniProt Q8IX12)", "log2 fold change": 0.677}, {"target": "RAB11FIP4 (peptide sequence: INLLNDLEAR, peptide start residue: 281) (UniProt Q86YS3)", "log2 fold change": -0.558}, {"target": "UniProt Q8IYA2 (peptide sequence: ENVQLHKEVEEEMEK, peptide start residue: 519)", "log2 fold change": 0.896}, {"target": "DNAJC10 (peptide sequence: AYEVLKDEDLRK, peptide start residue: 83) (UniProt Q8IXB1)", "log2 fold change": -0.474}, {"target": "PNPLA6 (peptide sequence: LAYVSCVR, peptide start residue: 1203) (UniProt Q8IY17)", "log2 fold change": 0.33}]}]}
